In PubChem BioAssay (NCATS):
This list was built around the results that the source calls inconclusive (neither active nor inactive); the mix of calls is not that of the screen. Potencies beside an inconclusive call are fits to weak or partial responses and may not hold up. Active and inactive are the calls of the source. Calls come from the whole dose curve; as a rule, active = well fitted cell-killing curve with a large enough effect; inconclusive = small, poorly fitted or top-dose-only effect, or effect the other way; inactive = no such curve, though single readings can be large or run the other way.

Test: Quantitative High-Throughput drug screen in 47 multiple myeloma cell lines against the NCATS MIPE library collection: EJM_DSMZ cell viability assay (AID 1918926; note: nearly all actives have a fitted effect of over 30% in size)
Conditions: EJM myeloma cell viability, CellTiter-Glo ATP, 48 h; series mostly up to 45.8 µM; viability, % of control: at the top concentration
From the text: PI: Beverly A. Mock Ph.D.
Laboratory of Cancer Biology and Genetics,
Center for Cancer Research, National Cancer Institute,
National Institute of Health, Bethesda, Maryland
Drug resistance and disease progression are common in multiple myeloma (MM) patients, underscoring the need for new therapeutic combinations. […] We hypothesized that effective combinations would reduce MYC expression and enhance p16 activity. […] These preclinical data identify potentially useful drug combinations for evaluation in drug-resistant MM and reveal potential mechanisms of combined drug sensitivity.
Described herein is the primary MIPE qHTS used to cherrypick compounds. Validated compounds were then further tested for potential synergistic activiy.
[1] Peat TJ, Gaikwad SM, Dubois W, Gyabaah-Kessie N, Zhang S, Gorjifard S, Phyo Z, Andres M, Hughitt VK, Simpson RM, Miller MA, Girvin AT, Taylor A, Williams D, D'Antonio N, Zhang Y, Rajagopalan A, Flietner E, Wilson K, Zhang X, Shinn P, Klumpp-Thomas C, McKnight C, Itkin Z, Chen L, Kazandijian D, Zhang J, Michalowski AM, Simmons JK, Keats J, Thomas CJ, Mock BA. Drug combinations identified by high-throughput screening promote cell cycle transition and upregulate Smad pathways in myeloma. Cancer Lett. 2023 Aug 1;568:216284. doi: 10.1016/j.canlet.2023.216284. Epub 2023 Jun 24. PMID: 37356470; PMCID: PMC10408729.
SEQUENCE No. (e.g., 1, 2, 3, etc.); […] (e.g., Cells, Incubation, Reagent, etc.); VALUE and DESCRIPTION.
1; Cells; 5 uL; white, solid bottom 1536-well Greiner assay plate.
2; Compounds; 23 nL; Kalypsis pin tool (Wako USA) equipped with a 1536-well pin head to transfer to the assay plates.
3; Incubation; 48 hours; 37C incubation.
4; Reagent;5uL; CellTiter Glo (Promega).
5; Detector; 425V; Luminescence; Viewlux PerkinElmer.
NOTES (numbers refer to Sequence numbers above)
1. The cell-based screening methods employed in this study were like those previously published. Briefly, the corresponding myeloma cell lines were screened in 1,536-well plates with 500 cells, 5-uL per well for inhibition of cell viability (assessed by measuring ATP levels with CellTiterGlo).
2. NCATS MIPE 4.0 library of approved and investigational drugs were added using the Kalypsis pin tool. Wells treated with DMSO only for 100% viability and media only wells for 0% viability were used as controls.
3. The assay plates were covered and incubated for 48 hours in a 37C, 5% CO2 incubator with controlled humidity.
4. After 48 hours, CellTilter-GloTM luminescent substrate mix (Promega) reagent was added to the assay plate and plates we incubated for 5 min at room temperature.
5. Signal was measured as median relative luminescence units on a ViewLux (PerkinElmer) multiplate reader.
[1] Heske CM, Davis MI, Baumgart JT, Wilson K, Gormally MV, Chen L, Zhang X, Ceribelli M, Duveau DY, Guha R, Ferrer M, Arnaldez FI, Ji J, Tran HL, Zhang Y, Mendoza A, Helman LJ, Thomas CJ. Matrix Screen Identifies Synergistic Combination of PARP Inhibitors and Nicotinamide Phosphoribosyltransferase (NAMPT) Inhibitors in Ewing Sarcoma. Clin Cancer Res. 2017 Dec 1;23(23):7301-7311. doi: 10.1158/1078-0432.CCR-17-1121. Epub 2017 Sep 12. PMID: 28899971; PMCID: PMC6636827.
Potency is the fitted concentration of half-maximal effect.

Structure (SMILES) | viability, % of control | Potency
Nc1nc(=O)n([C@H]2C[C@H](O)[C@@H](CO)O2)cc1F | inactive: 96.7% | –
CCCCNc1cc(C(=O)O)cc(S(N)(=O)=O)c1Oc1ccccc1 | inactive: 94.5% | –
CC(C)OC(=O)C(C)(C)Oc1ccc(C(=O)c2ccc(Cl)cc2)cc1 | – | active: 10500 nM
Nc1ccn(C[C@@H](CO)OCP(=O)(O)O)c(=O)n1 | – | inconclusive: 0.6 nM [cytotoxic]
CCn1cc(C(=O)O)c(=O)c2cc(F)c(N3CCNCC3)cc21 | – | inconclusive: 1.2 nM [rising, full curve, poor fit]
COc1c(N2C[C@@H]3CCCN[C@H]3C2)c(F)cc2c(=O)c(C(=O)O)cn(C3CC3)c12 | – | inconclusive: 2.1 nM [rising, full curve, poor fit]
O=C(O)CCCCC(CCSCc1ccccc1)SCc1ccccc1 (stereo not given) | inactive: 109% | –
COc1cc(NS(=O)(=O)c2ccc(N)cc2)nc(OC)n1 | inactive: 116% | –
CCCCCCCCCCCCc1ccc(S(=O)(=O)Nc2nncs2)cc1 | – | inconclusive: 18700 nM [cytotoxic, partial curve, poor fit]
COc1cc([C@@H]2c3cc4c(cc3[C@@H](O[C@@H]3O[C@@H]5CO[C@@H](C)O[C@@H]5[C@H](O)[C@@H]3O)[C@H]3COC(=O)[C@H]23)OCO4)cc(OC)c1O | – | inconclusive: 2640 nM [cytotoxic, full curve]
C[C@@H]1CC[C@@]2(OC1)OC1CC3C4CC=C5CC(O)CCC5(C)C4CCC3(C)C1[C@@H]2C (stereo not given in full) | inactive: 110% | –
Cc1cn2cc(C(=O)N(C)CCO)cc(N[C@@H]3CCOc4cccc(C)c43)c2n1 | – | inconclusive: 26400 nM [cytotoxic, single point]
CN1[C@@H]2CCC[C@@H]1CC(NC(=O)c1nn(C)c3ccccc13)C2 (stereo not given in full) | inactive: 110% | –
CO[C@@H]1[C@H](N(C)C(=O)c2ccccc2)C[C@H]2O[C@]1(C)n1c3ccccc3c3c4c(c5c6ccccc6n2c5c31)C(=O)NC4 | – | inconclusive: 4180 nM [cytotoxic, full curve]
CNC(=O)CN1CCC(Oc2cc3c(Nc4cccc(Cl)c4F)ncnc3cc2OC)CC1 | – | inconclusive: 10.5 nM [cytotoxic, full curve]

A second format for 2 compounds above.
Structure (SMILES)	viability, % of control	Potency
COc1cc(NS(=O)(=O)c2ccc(N)cc2)nc(OC)n1	inactive: 116%	–
C[C@@H]1CC[C@@]2(OC1)OC1CC3C4CC=C5CC(O)CCC5(C)C4CCC3(C)C1[C@@H]2C (stereo not given in full)	inactive: 110%	–
